The data set concerns the target Lysozyme (Gallus gallus (hen egg white)) (UniProt P00698). As to the kind of experiment: binding assay. The conditions noted are these: 5'-NH2, immobilized on triazine-functionalized silica nanoparticles (~60 aptamers per NP), purified native protein, protein details: Sigma-Aldrich, single-stranded DNA.

Construct, isoform or probe ends are uncertain for at least one entry.

“ATCTACGAATTCATCAGGGCTAAAGAGTGCAGAGTTACTTAG [Anti-lysozyme aptamer]”: the Kd turned out to be 31 nM (CITED Cox and Ellington 2001, measured in solution); 625 nM (apparent Kd approx 9 ug/mL, half-maximum PFVSO3 polymer fluorescence on 60 Apt-NP, 20 mM Tris-HCl, 100 mM NaCl, 5 mM MgCl2, pH 8.5, room temperature).
